Results as given in US5298490A (Immunobiology Research Institute, Inc., priority 1990, dated 1994).
HELM strings list residues between dots; [ac] is acetyl, [am] amide, other brackets name non-standard units.

Assay: general procedure: Boc solid-phase peptide synthesis; BHA resin (0.67 meg/g); BOC-(BZLCl2)-Tyr resin ester (0.40 meg/g); DCC/HOBt
Conditions: whole synthesis

In the case of PEPTIDE1{[ac].R.P.D.V.[am]}$$$$V2.0, the “crude HPLC purity” value (HPLC, scale of the general procedure 5.0 g (3.35 mmol) of resin) was 98%.

PEPTIDE1{[ac].R.P.V.A.[am]}$$$$V2.0 showed a crude mass of 240 mg, an isolated mass of 167 mg and an isolated yield (overall, scale of the general procedure 5.0 g (3.35 mmol) of resin) of 50%.
